The campaign covered roughly 340,000 compounds. About 170 (0.05%) were called active. Inconclusive means that the source gave no clear call. Such entries were picked first, then a sample of the others. The call rests on the fitted dose curve; in most records, active means well fitted inhibition curve with a large enough effect in the signal ratio, with a control signal flat (not every such curve was filed as active); inconclusive means small, poorly fitted or top-dose-only effect, or effect the other way, or a change in a side signal; inactive means flat fitted curve, though single readings scatter; the % refers to the signal ratio. Where the call is inconclusive, the potency comes from a doubtful curve fit.
Experiment: qHTS Assay to Find Inhibitors of Chronic Active B-Cell Receptor Signaling;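 on activity change, negative = inhibition: plate controls were basal doxycycline-induced cells for no effect and cells given 10 µM MG132 for full effect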
Conditions: ABC-DLBCL IkBa-CBG/CBR reporter, luminescence ratio (green luciferase fused to IkBa over red control in TMD8 lymphoma cells), 4 h; activity change, negative = inhibition: at 46.1 µM (top of the series) unless noted
In short: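 Compounds up to 46 uM were incubated four hours with TMD8 cells whose green CBG68 luciferase is fused to IkappaBalpha; red CBR luminescence normalised the signal, and concentration-effect curves were fitted to fusion, red and ratio data.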
Potency means the concentration at half of the fitted maximal effect.

| Structure (SMILES) | activity change, negative = inhibition | Potency |
| --- | --- | --- |
| Cc1ccc(S(=O)(=O)NNC(=O)CCC(=O)Nc2ccc(C)c(C)c2)cc1 | inconclusive: 16.2% | – |
| NS(=O)(=O)c1cccc(NC(=O)c2cccnc2Oc2ccccc2)c1 | inconclusive: -15.4% | – |
| COC(=O)c1cc(C#N)c(N(C)Cc2ccccc2)nc1C | – | inconclusive: 7.31 µM [falling, partial curve, poor fit] |
| COc1ccc(-c2cc(C(=O)Nc3cccc(S(=O)(=O)NCc4ccco4)c3)c3ccccc3n2)cc1OC | inactive | – |
| CCOc1cc(C(=O)NN=C2CCCC2)cc(OCC)c1OCC | – | inconclusive: 11.2 µM [falling, partial curve] |
| O=C(Cn1nc(Cl)nc1Cl)c1ccc2c(c1)OCCO2 | inactive | – |
| Cc1ccc(OCC(O)CN2CCN(c3ccccc3)CC2)cc1 (stereo not drawn) | inconclusive: -0.51% | – |
| O=C(C1CC1)N1CCN(c2nc3c(F)cc(F)cc3s2)CC1 | inactive | – |
| Cc1cccc(CNC(=O)c2sc3ncnc(N(C)C4CCCCC4)c3c2C)c1 | inactive | – |
| COc1ccc2c(c1OC)C(=O)N(c1cccc(NC(C)=O)c1)C2 | inactive | – |
| Cc1ccnc(N/N=C/c2ccco2)n1 | inactive | – |
| COc1ccccc1C1CN(c2ccccc2)N=C1c1cccs1 (stereo not drawn) | inactive | – |
| CC(C)c1ccccc1NC(=O)c1ccc2ncsc2c1 | – | inconclusive: 11.2 µM [falling, partial curve] |
| COC(=O)c1cc(NC(=O)c2ccc3c(c2)N(Cc2cccc(Cl)c2)C(=O)c2ccccc2S3=O)cc(C(=O)OC)c1 (stereo not drawn) | inactive | – |
| O=C(Oc1coc(CSc2nnc(NC(=O)C3CC3)s2)cc1=O)c1c(F)cccc1F | – | inconclusive: 7.94 µM [falling, partial curve] |
| CC(C)C(=O)N1CCN(c2ccc(NC(=O)COc3ccccc3[N+](=O)[O-])cc2)CC1 | inactive | – |
| Cc1cc(NC(=O)CCC2CCCC2)no1 | inconclusive: 7.58% | – |
| Cc1ccc(C23CC4CC(CC(C(=O)NC(C)C(N)=O)(C4)C2)C3)cc1 (stereo not drawn) | inactive | – |
| CCN1CCCC1Cn1cnc2c([nH]c3ccc(Cl)cc32)c1=O (stereo not drawn) | inconclusive: 2.84% | – |
| CC1=CCC2COC(c3ccc[n+](Cc4ccccc4)c3)C1C2 (stereo not drawn) | inactive | – |
| COC(=O)C1=C(C)N=C2SC(C#N)=C(N)N2C1c1ccc(OCc2ccccc2)cc1 (stereo not drawn) | inconclusive: 5.25% | – |
| CC(=O)Nc1ccc(NC(=O)CCC(=O)c2ccc(C)cc2)cc1 | inactive | – |
| Cc1cc(C)c(Cn2c3ccccc3c3cnn(CC(=O)NCCN4CCOCC4)c(=O)c32)c(C)c1 | inactive | – |
| CC[n+]1c(/C=C/c2c[nH]c3ccccc23)ccc2cc(C)ccc21 | inactive | – |
| O=C(Nc1ccc2ccccc2c1)c1ccccc1O | – | inconclusive: 6.31 µM [rising, single point] |
| CC(=O)c1ccc(NC(=O)Nc2ccc3c(c2)N(C)C(=O)CS3)cc1 | – | inconclusive: 8.2 µM [rising, partial curve, poor fit] |

An excerpt of these results, comma-delimited:
Structure (SMILES),"activity change, negative = inhibition",Potency
O=C(C1CC1)N1CCN(c2nc3c(F)cc(F)cc3s2)CC1,inactive,–
Cc1cccc(CNC(=O)c2sc3ncnc(N(C)C4CCCCC4)c3c2C)c1,inactive,–

Entries of single compounds from above:
COc1ccccc1C1CN(c2ccccc2)N=C1c1cccs1 (stereo not drawn) as listed: activity change, negative = inhibition: inactive
CC(C)C(=O)N1CCN(c2ccc(NC(=O)COc3ccccc3[N+](=O)[O-])cc2)CC1 as listed: activity change, negative = inhibition: inactive
CC(=O)c1ccc(NC(=O)Nc2ccc3c(c2)N(C)C(=O)CS3)cc1 as listed: Potency: inconclusive: 8.2 µM [rising, partial curve, poor fit]

(further entries)

| Structure (SMILES) | activity change, negative = inhibition | Potency |
| --- | --- | --- |
| COC(=O)C1(O)CC(CC(C)C)=NN1C(=O)c1ccccc1 (stereo not drawn) | – | inconclusive: 25.9 µM [rising, single point] |
| CC1CCN(c2ccccc2NC(=O)c2cc([N+](=O)[O-])ccc2N2CCOCC2)CC1 | inconclusive: 0.45% | – |
| CCSc1nnc(NC(=O)NC2CCCCC2)s1 | inconclusive: -15.7% | – |
| Cc1cc(NC(=O)CSc2ncnc3c2cnn3-c2ccccc2)no1 | inactive | – |
| CCO[C@@H]1OC(C(=O)N2CCN(Cc3ccc4c(c3)OCO4)CC2)=C[C@H](C2CCCCC2)[C@H]1CCCO | inactive | – |
| COc1cc2c(cc1OC)C1O[C@](CCCCN3C(=O)c4ccccc4C3=O)(C2)OC2=C1C(=O)CC(C)(C)C2 | – | inconclusive: 1 µM [activator, partial curve] |
| N#CCCn1cc(/C=N/N=C2\NC(=O)C(CC(=O)O)S2)c(-c2ccc(F)cc2)n1 (stereo not drawn) | – | inconclusive: 25.1 µM [falling, single point] |
| CC(C)(C)OC(=O)NCc1ccc(CNC(=O)c2[nH]cnc2C(=O)NC2CCN(C(=O)OC(C)(C)C)CC2)cc1 | inconclusive: -13% | – |
| N#CNC(=Nc1cccc(F)c1)SCc1ccccc1F | inconclusive: -6.61% | – |
| O=C(COC(=O)/C=C/c1ccc(C(F)(F)F)cc1)Nc1ccc2[nH]c(=O)[nH]c2c1 | inconclusive: 12.4% | – |
| Cc1oc(-c2ccc(Cl)cc2)cc1C(=O)NC1CCN(Cc2ccccc2)CC1 | – | inconclusive: 7.08 µM [rising, full curve] |
| Clc1ccc2nc(CSCc3ccccc3)cn2c1 | inconclusive: 2.58% | – |
| O=C(NC(=S)Nc1ccc(N2CCCC2)cc1)c1ccc(F)cc1 | – | inconclusive: 2 µM [falling, partial curve, poor fit] |
| Cc1nnc(N/N=C/c2ccc(-c3ccccc3F)o2)n1N | – | inconclusive: 35.5 µM [falling, single point] |
| COc1ccccc1N(C)S(=O)(=O)c1ccc(C(=O)Nc2nc(C)cs2)cc1 | inconclusive: 0.991% | – |
| O=S1(=O)N=C(N(CCO)/N=C/c2ccc(Cl)cc2)c2ccccc21 | inconclusive: 2.74% | – |
| CCCCCOc1ccc(CSc2ncn[nH]2)cc1 | – | inconclusive: 29.1 µM [falling, partial curve, poor fit] |
| O=C(O)c1ccccc1N=Cc1c(O)n(-c2nccs2)c(=O)c2ccccc12 | – | inconclusive: 31.6 µM [rising, single point] |
| CCc1ccc2c(c1)CCCN2C(=O)c1ccccc1C(=O)O | inconclusive: -8.4% | – |
| CCCc1cc(C(=O)NC2CCCCC2)no1 | – | inconclusive: 4.11 µM [rising, full curve, poor fit] |
| Brc1ccc(-c2nn3c(-c4ccncc4)nnc3s2)o1 | inactive | – |
| Cc1ccc(C2C3CN(C(C)C)CC=C3C(C#N)=C(N)C2(C#N)C#N)cc1 (stereo not drawn) | inactive | – |
| O=C(O)Cc1ccc(NC(=O)c2ccc(NC(=O)C3CC3)cc2)cc1 | inconclusive: -2.15% | – |
| COc1ccc2oc(=O)c(-c3cn4c(n3)sc3cc(F)ccc34)cc2c1 | – | inconclusive: 15.8 µM [falling, partial curve] |
| O=C(/C=C/c1ccccc1)NNC(=O)c1cccs1 | – | inconclusive: 31.6 µM [rising, single point] |
| COC(=O)c1ccc(C)c(NC(=O)CN(c2cc(OC)ccc2OC)S(C)(=O)=O)c1 | inconclusive: -2.2% | – |

| Structure (SMILES) | activity change, negative = inhibition | Potency |
| --- | --- | --- |
| Cc1ccc2c(CN3CCC(C)CC3)cc(=O)oc2c1 | inconclusive: -27.3% | – |
| COC(=O)N/N=C\C=C\c1ccc2c(c1)OCO2 | – | inconclusive: 20 µM [falling, partial curve, poor fit] |
| O=c1[nH]c(COc2ccccc2)nc2ccccc12 | – | inconclusive: 20 µM [falling, single point] |
| COCc1cc(CN(C)C(=O)c2oc3c(F)cccc3c2C)[nH]n1 | – | inconclusive: 12.6 µM [falling, partial curve, poor fit] |
| Cc1nc(NC(=O)c2ccccc2)sc1-c1csc(Nc2ccc(Cl)cc2)n1 | inconclusive: -21.4% | – |
| CC(C)c1ccc(-n2cccc2/C=C2/C(=N)N3C=CSC3=NC2=O)cc1 | inactive | – |
| O=C(OCc1cc(=O)n2cc(Br)ccc2n1)c1ccc(Cl)c(S(=O)(=O)NCc2ccccc2)c1 | inconclusive: 7.04% | – |
| CCOc1ccc(C2NC(=O)C(C#N)=C(S)N2c2cccc(C)c2)cc1OC (stereo not drawn) | inconclusive: -4.48% | – |
| COC(=O)CCCN1C(=O)c2cccc3cccc(c23)C1=O | inconclusive: 20.4% | – |
| COc1cc(NC(=S)NNC(=O)CC(C)C)c(OC)cc1Cl | inconclusive: 6.73% | – |
| COc1ccc(COc2cccc(C=O)c2)cc1 | – | inconclusive: 4.61 µM [falling, single point] |
| CCOC(=O)c1c(C)[nH]c(C(=O)COC(=O)C2(C)CC2(Cl)Cl)c1C (stereo not drawn) | – | inconclusive: 29.1 µM [falling, single point] |
| CCc1cc(=O)oc2c(C)c(OCC(=O)N3CC[C@@]4(O)CCCC[C@H]4C3)ccc12 | – | inconclusive: 6.31 µM [falling, single point] |
| Cc1ccccc1OC(=O)c1cccc(S(=O)(=O)N2CCN(C)CC2)c1 | inactive | – |
| CCc1nnc(NC(=O)c2ccc(-c3ccc(C(C)=O)cc3)o2)s1 | inconclusive: 3.53% | – |
| N#Cc1c(/N=C/c2ccco2)sc2c1CCCCC2 | inconclusive: 2.9% | – |
| CCOC(=O)CN=C1CC(C)(C)CC2=C1Sc1ncnc(N(C)C)c1N2 | – | inconclusive: 15.8 µM [falling, partial curve, poor fit] |
| COC(=O)c1c(-c2ccncc2)csc1NC(=O)c1ccoc1C | – | inconclusive: 16.4 µM [rising, partial curve, poor fit] |
| Cn1nnnc1SC(C(=O)Nc1cccc(C(F)(F)F)c1)c1ccccc1 (stereo not drawn) | inconclusive: 1.94% | – |
| COc1ccc2c(c1)C1=NN(/C(C)=C/C(C)=O)C(c3cccc(F)c3)C1CC2 (stereo not drawn) | inconclusive: 7.95% | – |
| CCn1cc(C(=O)NCCC(=O)NCCCO)c(=O)c2cc3c(cc21)OCO3 | inactive | – |
| CN(C(=O)COC(=O)c1ccccc1OCc1ccc(Cl)cc1)c1c(N)n(Cc2ccccc2)c(=O)[nH]c1=O | inconclusive: 1.4% | – |
| Cc1ccc(NC(=S)/N=C(\N)Nc2nc(C)c3ccccc3n2)cc1C | inconclusive: -11.6% | – |
| O=C(NC(=S)Nc1ccccc1C(=O)O)c1ccc(-c2ccc(Br)cc2)o1 | – | inconclusive: 7.94 µM [falling, partial curve, poor fit] |
| COc1cc(CCCN2C(=S)NC[C@H]2Cc2ccc(O)cc2)cc(OC)c1OC | inactive | – |
| COc1ccc(OC)c(NC(=O)C2CCCC2)c1 | inconclusive: -0.859% | – |
